{"source": "patent US20240238238A1", "about": "“Isotopically Modified Composition and Therapeutic Uses Thereof” (BioJiva LLC, priority 2018, published 2024)", "assay": "Plasma PK by LC-MS (D2-LA, LA, D2-AA) in the phase I/II trial", "experimental": "PK samples were obtained predose and at 0.5, 1, 1.5, 2, 4, 6, 8, 12, 16, and 24 hours following the first dose and 14, 28, 29, 30, and 31 days following enrollment. The samples taken on Days 29-31 represent Isotopically modified polyunsaturated fatty acid, ester, thioester, amide, or other prodrug thereof (e.g., 11,11,D2-linoleic acid ethyl ester) washout levels. D2-LA, linoleic acid (LA), deuterated arachidonic acid (D2-AA), and arachidonic acid (ARA) concentrations were measured in the samples.\nPlasma concentrations of 11,11-D2-linoleic acid ethyl ester (combined free acid form and ester form) and non-deuterated analogs were determined by liquid chromatography and mass spectrometry (LCMS). Blood was collected in K2EDTA anticoagulant tubes, centrifuged to obtain plasma and red blood cells (RBCs), and frozen until analyzed. The samples were hydrolyzed to free fatty acids and analyzed by high performance LC-MS by Good Laboratory Practice validated methods. Low-intensity D2 and high-intensity H2 signals were measured with high accuracy at Ricerca Biosciences, using an AB SCIEX 6500 tandem-quadrupole MS. The 13C2 isotopomer signal was used as a calibration standard for 11,11,D2-linoleic acid ethyl ester; a polydeuterated internal standard was utilized. The enzymatic elongation/desaturation metabolite, 13,13-D2-arachidonic acid (D2-AA), was also measured, in plasma and red blood cells (RBCs)."}
{"smiles": "[2H]C([2H])(/C=C\\CCCCC)/C=C\\CCCCCCCC(=O)OCC", "note": "[11,11-D2-linoleic acid ethyl ester]", "values": [{"measurement": "Plasma AUC for H2-LA (non-deuterated LA)", "setting": "day 28, high dose (4.5 g BID), active treatment subjects", "result": "10,275 μg*h/mL"}, {"measurement": "Day 28 plasma AUC for H2-LA as % of baseline AUC", "setting": "high dose (4.5 g BID), baseline AUC 15,310 μg*h/mL", "result": "approximately 67%"}, {"measurement": "Change of plasma LA concentrations from predose baseline", "setting": "low dose (1.8 g QD), days 1 and 28", "result": "did not appear to change"}]}
